Data as given in PubChem BioAssay AID1259254 (NCATS, 2017).
Here is a random part of about 59,000 reagents. About 1,550 of all reagents (2.6%) were called active. 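G2 share is only a proxy for re-replication; each gene was hit by three separate siRNAs, and active genes were retested.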 The numbers tell different reagents against one gene apart. Further read-outs or replicates are left out here. Reagent sequences are not shown. Not given: the amount of reagent.

Aim: 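Genome-wide screen for genes that prevent DNA re-replication in cancer cells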 (primary screen)
System: human HCT116 colorectal cancer cells
Reagents: single siRNA against human genes
Duration: 3 days
Measured: 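Imaged Hoechst DNA stain sorts each cell into a cycle phase by DNA amount; per plate, G2 fraction set to 0% for non-targeting and 100% for GMNN siRNA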
Direction: G2 robust z-score: higher = more G2 cells, more excess DNA replication
Call rule: 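An siRNA counts as active if its G2 robust z-score lies at least 5 MADs above the screen median; here such calls match roughly 38% of GMNN control or more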

| gene | siRNA no. | G2 robust z-score | activity call |
| --- | --- | --- | --- |
| THPO (thrombopoietin) | 1 | -0.78 | inactive |
| THPO (thrombopoietin) | 2 | 0.457 | inactive |
| THPO (thrombopoietin) | 3 | 0.413 | inactive |
| RPS6KA1 (ribosomal protein S6 kinase A1) | 1 | 0.219 | inactive |
| RPS6KA1 (ribosomal protein S6 kinase A1) | 2 | -0.443 | inactive |
| RPS6KA1 (ribosomal protein S6 kinase A1) | 3 | 2.61 | inactive |
| H3C11 (H3 clustered histone 11) | 1 | -0.786 | inactive |
| H3C11 (H3 clustered histone 11) | 2 | -0.734 | inactive |
| H3C11 (H3 clustered histone 11) | 3 | 1.07 | inactive |
| UBXN4 (UBX domain protein 4) | 1 | -0.701 | inactive |
| UBXN4 (UBX domain protein 4) | 2 | -0.597 | inactive |
| UBXN4 (UBX domain protein 4) | 3 | 0.619 | inactive |
| EML5 (EMAP like 5) | 1 | -0.211 | inactive |
| EML5 (EMAP like 5) | 2 | 0.636 | inactive |
| EML5 (EMAP like 5) | 3 | 0.319 | inactive |
| SIPA1L3 (signal induced proliferation associated 1 like 3) | 1 | -0.87 | inactive |
| SIPA1L3 (signal induced proliferation associated 1 like 3) | 2 | 1.25 | inactive |
| SIPA1L3 (signal induced proliferation associated 1 like 3) | 3 | 1.97 | inactive |
| NOTUM (notum, palmitoleoyl-protein carboxylesterase) | 1 | 0.0403 | inactive |
| NOTUM (notum, palmitoleoyl-protein carboxylesterase) | 2 | 1.67 | inactive |
| NOTUM (notum, palmitoleoyl-protein carboxylesterase) | 3 | -0.12 | inactive |
| DUX1 (double homeobox 1) | 1 | -0.305 | inactive |
| DUX1 (double homeobox 1) | 2 | -0.881 | inactive |
| DUX1 (double homeobox 1) | 3 | -1.23 | inactive |
| MTSS1 (MTSS I-BAR domain containing 1) | 1 | -0.675 | inactive |
| MTSS1 (MTSS I-BAR domain containing 1) | 2 | 0.296 | inactive |
| MTSS1 (MTSS I-BAR domain containing 1) | 3 | -1.27 | inactive |
| MST1R (macrophage stimulating 1 receptor) | 1 | 0.414 | inactive |
| MST1R (macrophage stimulating 1 receptor) | 2 | 1.12 | inactive |
| MST1R (macrophage stimulating 1 receptor) | 3 | 1.08 | inactive |

The list goes on; the last 7 above are carried over.
| gene | siRNA no. | G2 robust z-score | activity call |
| --- | --- | --- | --- |
| DUX1 (double homeobox 1) | 3 | -1.23 | inactive |
| MTSS1 (MTSS I-BAR domain containing 1) | 1 | -0.675 | inactive |
| MTSS1 (MTSS I-BAR domain containing 1) | 2 | 0.296 | inactive |
| MTSS1 (MTSS I-BAR domain containing 1) | 3 | -1.27 | inactive |
| MST1R (macrophage stimulating 1 receptor) | 1 | 0.414 | inactive |
| MST1R (macrophage stimulating 1 receptor) | 2 | 1.12 | inactive |
| MST1R (macrophage stimulating 1 receptor) | 3 | 1.08 | inactive |
| BPIFB2 (BPI fold containing family B member 2) | 1 | 0.446 | inactive |
| BPIFB2 (BPI fold containing family B member 2) | 2 | -0.0612 | inactive |
| BPIFB2 (BPI fold containing family B member 2) | 3 | -0.792 | inactive |
| CDSN (corneodesmosin) | 1 | 1.37 | inactive |
| CDSN (corneodesmosin) | 2 | 0.642 | inactive |
| CDSN (corneodesmosin) | 3 | 3.23 | inactive |
| FKRP (fukutin related protein) | 1 | -1.14 | inactive |
| FKRP (fukutin related protein) | 2 | 1.52 | inactive |
| FKRP (fukutin related protein) | 3 | -0.499 | inactive |
| L1CAM-AS1 (L1CAM antisense RNA 1) | 1 | -0.452 | inactive |
| L1CAM-AS1 (L1CAM antisense RNA 1) | 2 | 1.15 | inactive |
| L1CAM-AS1 (L1CAM antisense RNA 1) | 3 | 0.387 | inactive |
| SHQ1 (SHQ1, H/ACA ribonucleoprotein assembly factor) | 1 | -0.0294 | inactive |
| SHQ1 (SHQ1, H/ACA ribonucleoprotein assembly factor) | 2 | 5.35 | active |
| SHQ1 (SHQ1, H/ACA ribonucleoprotein assembly factor) | 3 | 0.67 | inactive |
| KLHL5 (kelch like family member 5) | 1 | -1.29 | inactive |
| KLHL5 (kelch like family member 5) | 2 | 1.48 | inactive |
| KLHL5 (kelch like family member 5) | 3 | -0.488 | inactive |
| GPR153 (G protein-coupled receptor 153) | 1 | -0.454 | inactive |
| GPR153 (G protein-coupled receptor 153) | 2 | -1.07 | inactive |
| GPR153 (G protein-coupled receptor 153) | 3 | -0.464 | inactive |
| DCT (dopachrome tautomerase) | 1 | -0.855 | inactive |
| DCT (dopachrome tautomerase) | 2 | -0.167 | inactive |
| DCT (dopachrome tautomerase) | 3 | 0.564 | inactive |
| ABAT (4-aminobutyrate aminotransferase) | 1 | -0.472 | inactive |
| ABAT (4-aminobutyrate aminotransferase) | 2 | -0.287 | inactive |
| ABAT (4-aminobutyrate aminotransferase) | 3 | 0.399 | inactive |
| CACNG5 (calcium voltage-gated channel auxiliary subunit gamma 5) | 1 | 4 | inactive |
| CACNG5 (calcium voltage-gated channel auxiliary subunit gamma 5) | 2 | -0.532 | inactive |
| CACNG5 (calcium voltage-gated channel auxiliary subunit gamma 5) | 3 | -0.927 | inactive |
| ZNF701 (zinc finger protein 701) | 1 | -0.715 | inactive |
| ZNF701 (zinc finger protein 701) | 2 | 0.208 | inactive |
| ZNF701 (zinc finger protein 701) | 3 | 0.177 | inactive |
| MLYCD (malonyl-CoA decarboxylase) | 1 | 0.512 | inactive |
| MLYCD (malonyl-CoA decarboxylase) | 2 | -1.21 | inactive |
| MLYCD (malonyl-CoA decarboxylase) | 3 | -0.934 | inactive |
| HYCC1 (hyccin PI4KA lipid kinase complex subunit 1) | 1 | -0.748 | inactive |
| HYCC1 (hyccin PI4KA lipid kinase complex subunit 1) | 2 | 1.88 | inactive |
| HYCC1 (hyccin PI4KA lipid kinase complex subunit 1) | 3 | -0.29 | inactive |
| SSH2 (slingshot protein phosphatase 2) | 1 | 1.47 | inactive |
| SSH2 (slingshot protein phosphatase 2) | 2 | -0.819 | inactive |
| SSH2 (slingshot protein phosphatase 2) | 3 | -1.24 | inactive |
| DHCR24 (24-dehydrocholesterol reductase) | 1 | -0.732 | inactive |
| DHCR24 (24-dehydrocholesterol reductase) | 2 | -1.4 | inactive |
| DHCR24 (24-dehydrocholesterol reductase) | 3 | 0.0824 | inactive |
| RASGEF1C (RasGEF domain family member 1C) | 1 | 2.13 | inactive |
| RASGEF1C (RasGEF domain family member 1C) | 2 | -0.0906 | inactive |
| RASGEF1C (RasGEF domain family member 1C) | 3 | 0.0714 | inactive |
| ELMOD3 (ELMO domain containing 3) | 1 | -0.895 | inactive |
| ELMOD3 (ELMO domain containing 3) | 2 | 1.83 | inactive |
| ELMOD3 (ELMO domain containing 3) | 3 | -0.599 | inactive |
| IGF1 (insulin like growth factor 1) | 1 | 0.035 | inactive |
| IGF1 (insulin like growth factor 1) | 2 | 0.514 | inactive |
| IGF1 (insulin like growth factor 1) | 3 | -0.268 | inactive |
| RAB33A (RAB33A, member RAS oncogene family) | 1 | -0.745 | inactive |
| RAB33A (RAB33A, member RAS oncogene family) | 2 | -0.485 | inactive |
| RAB33A (RAB33A, member RAS oncogene family) | 3 | 1.51 | inactive |
